# The full ranking holds about 33,000 sequences; the median of “E-score (-0.5 to 0.5)” is about -0.016, and the highest 2% start at about 0.3. This is one part of the list.
# Target: T1, Yer184c (UniProt P39961)
# T1 sequence: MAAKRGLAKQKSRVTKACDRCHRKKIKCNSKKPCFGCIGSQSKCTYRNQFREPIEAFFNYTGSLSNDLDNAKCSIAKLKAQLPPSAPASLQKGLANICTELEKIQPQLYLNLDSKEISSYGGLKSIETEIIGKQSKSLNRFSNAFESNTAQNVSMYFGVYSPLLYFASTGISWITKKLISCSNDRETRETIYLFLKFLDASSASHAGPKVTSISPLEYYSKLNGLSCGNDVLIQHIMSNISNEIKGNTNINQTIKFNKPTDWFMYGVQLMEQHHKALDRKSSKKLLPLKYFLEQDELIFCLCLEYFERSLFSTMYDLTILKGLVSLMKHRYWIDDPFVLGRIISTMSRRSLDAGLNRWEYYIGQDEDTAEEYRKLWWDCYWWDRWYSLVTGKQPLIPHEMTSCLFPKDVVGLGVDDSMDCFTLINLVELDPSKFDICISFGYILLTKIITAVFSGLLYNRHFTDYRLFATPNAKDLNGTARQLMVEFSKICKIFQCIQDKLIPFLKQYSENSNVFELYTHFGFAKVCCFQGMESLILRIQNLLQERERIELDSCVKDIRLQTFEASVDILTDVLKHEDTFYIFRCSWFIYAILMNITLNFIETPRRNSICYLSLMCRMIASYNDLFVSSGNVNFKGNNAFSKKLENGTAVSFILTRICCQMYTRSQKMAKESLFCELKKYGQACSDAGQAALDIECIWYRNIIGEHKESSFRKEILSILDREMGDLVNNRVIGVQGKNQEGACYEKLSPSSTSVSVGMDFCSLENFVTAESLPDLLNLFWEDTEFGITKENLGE
# Experiment: PBM E-score (8-mer binding enrichment) (E-score (-0.5 to 0.5)); higher = stronger / more preferred TF binding
# Settings: protein concentration: 100 nM; construct: GST-full length
# How it was run: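 Masliner-normalised scans of fluorescent anti-GST signal were the basis for scoring. That signal came from GST-tagged yeast transcription factors applied at about 100-200 nM to double-stranded universal all-10-mer Agilent arrays on fresh or once-stripped slides. Each ungapped eight-base word, pooled with its reverse complement, received an E-score from the Universal PBM Analysis Suite.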
row,Sequence,PBM E-score
1,CCATTGTA,0.0103
2,TACAAGCA,0.0494
3,TGCCGACA,0.222
4,AATGCACT,-0.0333
5,ACGTATAT,-0.0477
6,CCCGAAAC,0.0699
7,ATCTGGTC,-0.13
8,TGATGCAA,-0.0409
9,GACAAACA,-0.0145
10,ATGCGAAT,0.0466
11,GAAAATGA,0.113
12,AATAATGA,0.123
13,CCTTAGCC,-0.0184
14,TCTAAAGA,0.18
15,AACCTTAT,-0.16
16,AACGGATA,0.374
17,CCAGTCAA,-0.12
18,ACGGGCAC,-0.161
19,CGCGAGGC,-0.0394
20,AATAGATC,0.142
21,CTGCCAAA,0.152
22,CGATTCTA,-0.0583
23,AAAAGTCC,0.0531
24,AGTCCACT,-0.231
25,AAGAAGGT,0.0836

row,Sequence,PBM E-score
1,CTACCGCC,-0.121
2,AAGTCATC,-0.131
3,AAGAACGG,-0.015
4,AGAAGGCC,0.0148
5,AGACCAAG,0.013
6,GAATGCAA,-0.0488
7,ACCGGTAC,0.0388
8,TGGAGGAA,-0.077
9,CGATAAGC,-0.0115
10,AGATAGGG,-0.134
11,AGGCATCC,-0.248
12,ATTTCCCA,0.107
13,ATAACACG,0.0108
14,GGAAGTTA,0.294
15,AATCAAAC,0.109
16,CCCCCCGG,-0.178
17,GGTTCATA,0.0452
18,CGATCTAC,0.0399
19,GTTGCTAA,0.191
20,CTGTGAAG,-0.0496
21,CCCTGTGA,-0.207
22,CCTGTTAC,-0.161
23,CGAACAGC,-0.0365
24,ATTGCAAG,-0.0154
25,AGATCACA,-0.0542

row,Sequence,PBM E-score
1,AAGGCTAT,-0.0663
2,CATGTGGC,0.0205
3,CCCGAAAG,0.0941
4,AGGCAGAA,-0.033
5,AGAGATCC,-0.00438
6,CTAGCCGC,0.127
7,CCACTTAC,-0.0905
8,ACTACAAT,0.174
9,GGCGCGCC,0.174
10,AGAGCAAG,0.113
11,ACACGAGT,-0.015
12,GGCCACCA,0.0491
13,CGTCCATA,0.0384
14,GCGGTATA,0.0139
15,CGGAATTA,0.352
16,CCCGTTCA,-0.183
17,ACCTGATA,-0.00294
18,CCAACAGG,-0.295
19,CTATATAC,0.247
20,TTGACAAA,0.206
21,AAAGGGGG,-0.155
22,GGTACTAA,-0.00623
23,ACAATCGT,-0.28
24,GTGGCTAA,0.0584
25,CCAAGCGG,-0.15

# Looked up one by one from the entries so far:
row,Sequence,PBM E-score
18,CGATCTAC,0.0399
9,GACAAACA,-0.0145

# (continued)

row,Sequence,PBM E-score
1,ACGATCCC,-0.162
2,AACAGATC,0.171
3,GTTGGCTA,-0.0541
4,ACGCGCCC,-0.0103
5,GGGTTACC,-0.301
6,CCATTATC,0.096
7,CCAGTCCG,-0.0409
8,AGGCTTAT,-0.0828
9,ATAACGGA,0.278
10,ATAGCCTA,-0.0458
11,CGTGCAAC,-0.073
12,GTCTTAGA,0.0182
13,AATACAGG,-0.0293
14,GCTGCTAA,0.0262
15,CCTGGGGC,-0.249
16,AACTGCTC,-0.0494
17,CGCTCTCC,-0.13
18,ACATGAAT,-0.053
19,CCCCTCCA,-0.219
20,AGATTCCC,-0.0681
21,ACGATGGG,-0.253
22,CTATAACA,-0.0394
23,CATTTCAC,0.0692
24,TAATCAGA,0.0801
25,CTCCGCAC,0.0881

# Taken from above:
# ATAACGGA | PBM E-score: 0.278
# ACATGAAT | PBM E-score: -0.053
# CCATTATC | PBM E-score: 0.096

# Further records.

row,Sequence,PBM E-score
1,GCCCTCAC,-0.211
2,CATCTGCC,-0.22
3,CTAACGAA,0.186
4,CTGTTCGA,0.0676
5,GGGTGAAC,0.0772
6,AAGTGATT,0.0525
7,ATTCCTCC,0.043
8,GACTTTTA,-0.0835
9,CTGTTGCC,-0.123
10,ATAGACCG,0.0754
11,CTTCGCTC,-0.0449
12,CTGCCGTC,-0.066
13,GAAATCCA,0.0984
14,GGTTAATA,0.182
15,CAGCTGGG,-0.116
16,AGGGACTG,-0.316
17,ATACGCGG,-0.0243
18,GTGTTTAA,0.174
19,ACGATTAG,0.0575
20,GCAAAAGA,-0.0659
21,ATAGCCCG,-0.0476
22,ATCAGATC,-9e-05
23,CAATTGTA,0.0264
24,ACAACCCC,-0.288
25,GATGGTAC,-0.0161

row,Sequence,PBM E-score
1,AGACTACC,-0.00986
2,ATCAAACC,0.074
3,GCATAGCC,-0.165
4,AACGAGTA,0.0483
5,CGTGGATA,0.0338
6,ATCCAGTC,-0.0403
7,AAGCGGTC,0.03
8,ACGTTCAG,-0.198
9,GCGGTACA,0.111
10,AGCACACT,0.00523
11,CTGTTCGC,0.142
12,GTTACTAA,0.0988
13,GCCCACCC,-0.139
14,CTGGGGTA,-0.223
15,ATACCGTA,0.0977
16,GGGTCTAA,-0.0506
17,GTCGGGTA,0.0546
18,CTTAGATA,0.0883
19,ATGGCCAT,-0.101
20,AATCGCCT,0.0835
21,AACGCTCG,0.122
22,CCAAACTC,0.00969
23,GATGGGGC,-0.212
24,ACCCGCGC,0.242
25,CGACCTAC,-0.186

row,Sequence,PBM E-score
1,GGCCTACA,-0.0193
2,CCGTACAG,0.0195
3,AAAATCGC,0.104
4,CGGGGAAC,0.0883
5,ACGGCAGG,-0.117
6,GTATATGA,0.116
7,ATTTACTA,0.172
8,CCGGATAA,0.4
9,GGGTTCAA,0.0459
10,ATTTTTCG,0.314
11,CTCTCCCA,-0.211
12,GTTGGAGA,0.0278
13,GTTGTGAA,0.0223
14,ACGGGAAT,0.0267
15,CTATTGTC,-0.0946
16,ACCAAGTA,0.0379
17,TCCTCTCA,-0.228
18,GATGGAAA,-0.0163
19,TGTTCAAA,0.15
20,AGGTGTCA,0.0413
21,GGGTGCGA,-0.227
22,AAAAATCA,0.0944
